The campaign covered roughly 320,000 compounds. About 22,000 (6.9%) were called active. Inconclusive results, whose numbers are uncertain, are shown with a selection of clear calls. The call rests on the fitted dose curve; in most records, active means well fitted inhibition curve with a large enough effect; inconclusive means small, poorly fitted or top-dose-only effect, or another doubt; inactive means no such curve, though single readings can be large or run the other way. Where the call is inconclusive, the potency comes from a doubtful curve fit.
experiment: Primary qHTS for delayed death inhibitors of the malarial parasite plastid, 96 hour incubation; conditions: P. falciparum luciferase reporter growth; series mostly up to 28.7 µM; activity change, negative = inhibition: at the top concentration
In short: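 96 h incubation, 37 C, 5% CO2, of luciferase-reporter P. falciparum-infected RBCs (2% hematocrit, 0.05% parasitemia final) with test compounds; endpoint luminescence.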
On the % scale 0 is the no-effect control and ±100 the full control effect; potency means the concentration at half of the fitted maximal effect.

SMILES	Potency	activity change, negative = inhibition
O=C(O)CCSc1nnnn1-c1ccccc1	inconclusive: 2.94 µM [inhibitor, full curve, poor fit]	
C(=C\c1nccc2c1[nH]c1ccccc12)/c1ccccc1	active: 2.62 µM	
CCn1cc(C(=O)NCC(OC)OC)c(=O)c2cc(S(=O)(=O)N3CCOCC3)ccc21	inconclusive: 18.5 µM [inhibitor, single point]	
CC(C)(C)NCC(O)c1ccc(O)c(CO)c1 (stereo unspecified)		inactive: 26.4%
Cc1[nH]c2ccccc2c1C(O)c1ccncc1 (stereo unspecified)		inactive: 0.377%
CCCc1c(C(=O)N/N=C/c2ccc(C)s2)nnn1-c1nonc1N		inactive: 10.1%
CCN(CC)CCSc1nnc2c3cc(C)ccc3n(Cc3ccccc3)c2n1	inconclusive: 18.5 µM [inhibitor, single point]	
COCCNC(=O)COc1ccc(Nc2ccccc2)cc1	inconclusive: 11.7 µM [inhibitor, single point]	
CCOc1c2ccc(C(=O)N[C@H](C)C3CCCCC3)cc2nn1CCOC	inconclusive: 0.0828 µM [inhibitor, partial curve, poor fit]	
O=C(N/N=C/c1ccoc1)c1ccc(Cl)cc1Cl	inconclusive: 18.5 µM [inhibitor, single point]	
O=[N+]([O-])c1ccc2nc(-c3ccccc3)n(OCc3ccc(Cl)cc3)c2c1	active: 13.1 µM	
COc1ccccc1CCNC(=O)CSc1nnc2ccc(-c3cccnc3)nn12	inconclusive: 1.17 µM [inhibitor, partial curve, poor fit]	
C/C(=N\NC(=O)c1cc(C)oc1C)c1ccc(N2CCOCC2)cc1		inactive: -0.344%
O=C(CC1Oc2ccccc2NC1=O)NCc1ccccc1 (stereo unspecified)		inactive: -4.52%
CNC(=S)N(CCc1ccc(OC)c(OC)c1)Cc1cc2c(C)cc(C)cc2[nH]c1=O	active: 11.7 µM	
CC(C)Oc1ccc(S(=O)(=O)N2CCOCC2)cc1NC(=O)C1=COCCO1	active: 11.7 µM	
Cc1oc(-c2ccc(Cl)cc2)nc1CN1CCCC(C(=O)NC2CC2)C1 (stereo unspecified)	inconclusive: 18.5 µM [inhibitor, single point]	
CN(C(=O)c1cnccn1)c1nnc(-c2cnccn2)s1	inconclusive: 4.65 µM [inhibitor, partial curve, poor fit]	
CCOC(=O)C1CCN(Cc2ccc3ccccc3c2)CC1	active: 13.1 µM	
CC(=O)c1c(C)[nH]c(C(=O)CSc2nnc(-c3ccc(Cl)cc3)n2CC2CCCO2)c1C (stereo unspecified)	active: 5.86 µM	
CC1CCCN(C(=O)c2cccc(S(=O)(=O)N3CCCc4ccccc43)c2)C1 (stereo unspecified)	inconclusive: 18.5 µM [inhibitor, single point]	

Four entries out of the list, sorted by SMILES length, largest number first:
SMILES	Potency	activity change, negative = inhibition
CCn1cc(C(=O)NCC(OC)OC)c(=O)c2cc(S(=O)(=O)N3CCOCC3)ccc21	inconclusive: 18.5 µM [inhibitor, single point]	
O=[N+]([O-])c1ccc2nc(-c3ccccc3)n(OCc3ccc(Cl)cc3)c2c1	active: 13.1 µM	
COc1ccccc1CCNC(=O)CSc1nnc2ccc(-c3cccnc3)nn12	inconclusive: 1.17 µM [inhibitor, partial curve, poor fit]	
CCCc1c(C(=O)N/N=C/c2ccc(C)s2)nnn1-c1nonc1N		inactive: 10.1%
